Results published in publication PMC3846853.
No constants are given. Whether binding was seen depends on the method and setting. In cells and extracts the contact can be indirect. Some entries that bind do so weakly or less than the wild type.

Molecular target: T1, M-cadherin (mouse (endogenous in Ric10)) (UniProt P33146)
T1 sequence: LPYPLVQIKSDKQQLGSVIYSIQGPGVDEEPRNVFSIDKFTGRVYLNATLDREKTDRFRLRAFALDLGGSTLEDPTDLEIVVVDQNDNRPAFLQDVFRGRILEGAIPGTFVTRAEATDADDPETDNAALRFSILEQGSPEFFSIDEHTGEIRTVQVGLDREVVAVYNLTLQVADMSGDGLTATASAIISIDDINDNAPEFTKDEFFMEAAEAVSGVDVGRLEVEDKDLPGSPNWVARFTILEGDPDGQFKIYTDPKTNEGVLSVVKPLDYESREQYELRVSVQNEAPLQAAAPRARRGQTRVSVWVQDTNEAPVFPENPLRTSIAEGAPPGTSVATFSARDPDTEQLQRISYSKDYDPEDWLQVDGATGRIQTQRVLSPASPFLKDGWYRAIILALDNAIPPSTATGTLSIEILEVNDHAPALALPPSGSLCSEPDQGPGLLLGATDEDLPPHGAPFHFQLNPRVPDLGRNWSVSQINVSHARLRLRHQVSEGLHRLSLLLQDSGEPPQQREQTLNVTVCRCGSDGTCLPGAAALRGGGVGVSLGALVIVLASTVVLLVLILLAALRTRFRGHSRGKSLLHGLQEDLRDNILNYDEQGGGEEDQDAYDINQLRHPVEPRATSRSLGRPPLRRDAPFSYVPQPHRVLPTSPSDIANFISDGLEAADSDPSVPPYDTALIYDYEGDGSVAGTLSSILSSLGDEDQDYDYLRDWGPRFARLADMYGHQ
Test: co-IP; anti-M-cadherin immunoprecipitation (Pierce Crosslink Magnetic IP/Co-IP Kit) from total lysates of Ric10 cells, immunoblot for p120; cells growing (pmGM) or differentiating (pmDM), with 0.1% DMSO or 100 uM NSC23766 for 24 h

binding: binds
B1: p120 catenin (protein, UniProt P30999 1-938)
chain: MDDSEVESTASILASVKEQEAQFEKLTRALEEERRHVSAQLERVRVSPQDANSLMANGTLTRRHQNGRFVGDADLERQKFSDLKLNGPQDHNHLLYSTIPRMQEPGQIVETYTEEDPEGAMSVVSVETTDDGTTRRTETTVKKVVKTMTTRTVQPVPMGPDGLPVDASAVSNNYIQTLGRDFRKNGNGGPGPYVGQAGTATLPRNFHYPPDGYGRHYEDGYPGGSDNYGSLSRVTRIEERYRPSMEGYRAPSRQDVYGPQPQVRVGGSSVDLHRFHPEPYGLEDDQRSMGYDDLDYGMMSDYGTARRTGTPSDPRRRLRSYEDMIGEEVPPDQYYWAPLAQHERGSLASLDSLRKGMPPPSNWRQPELPEVIAMLGFRLDAVKSNAAAYLQHLCYRNDKVKTDVRKLKGIPILVGLLDHPKKEVHLGACGALKNISFGRDQDNKIAIKNCDGVPALVRLLRKARDMDLTEVITGTLWNLSSHDSIKMEIVDHALHALTDEVIIPHSGWEREPNEDCKPRHIEWESVLTNTAGCLRNVSSERSEARRKLRECDGLVDALIFIVQAEIGQKDSDSKLVENCVCLLRNLSYQVHREIPQAERYQEALPTVANSTGPHAASCFGAKKGKDEWFSRGKKPTEDPANDTVDFPKRTSPARGYELLFQPEVVRIYISLLKESKTPAILEASAGAIQNLCAGRWTYGRYIRSALRQEKALSAIAELLTSEHERVVKAASGALRNLAVDARNKELIGKHAIPNLVKNLPGGQQNSSWNFSEDTVVSILNTINEVIAENLEAAKKLRETQGIEKLVLINKSGNRSEKEVRAAALVLQTIWGYKELRKPLEKEGWKKSDFQVNLNNASRSQSSHSYDDSTLPLIDRNQKSDKKPDREEIPMSNMGSNTKSLDNNYSTLNERGDHNRTLDRSGDLGDMEPLKGAPLMQKI
